About 740 (0.23%) of roughly 320,000 compounds were called active. The shares of active, inactive and inconclusive entries below differ from those in the screen. Calls come from the whole dose curve; as a rule, active = well fitted activation curve with a large enough effect; inconclusive = small, poorly fitted or top-dose-only effect; inactive = no such curve, though single readings can be large or run the other way. A potency beside an inconclusive call is a rough fit, not a confirmed value. More than one record can exist for a structure, and the calls need not agree.
Assay: qHTS Assay for Small Molecule Inhibitors of Mitochondrial Division or Activators of Mitochondrial Fusion; note: nearly all actives have a fitted effect of over 45% in size; for growth rescue (activation): % of control where 0% means no effect
Details: S. cerevisiae fusion-defective mutant growth rescue, CellTiterGlo 48 h; growth rescue (activation): at 46.1 µM (top of the series) unless noted
Procedure, shortened: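 Temperature-sensitive fusion-defective S. cerevisiae (e.g. fzo1-1, mgm1-5) were grown with compound in YPEG medium (3% ethanol, 3% glycerol) for 48 hours at 37C. Growth rescue was measured as viability by CellTiterGlo luminescence after 10 minutes at ambient.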
Potency is the fitted concentration of half-maximal effect.

SMILES | growth rescue (activation) | Potency
Cc1cc(C)n2nc(SCC(=O)c3cc(C)n(CC4CCCO4)c3C)nc2n1 (centres undefined) | inactive: 10.5% | –
Cc1cccc(CNC(=O)c2ccc(NC(=O)C3=CSCCO3)cc2)c1 | – | inconclusive: 12.6 µM [activator, partial curve]
Cc1ccccc1SCC(=O)N1CCN(c2ccc(C(F)(F)F)cn2)CC1 | – | inconclusive: 35.5 µM [activator, single point]
CC1=CC2=NC(=O)/C(=C\c3cccn3CCOc3cccc(C)c3)C(=N)N2O1 | – | inconclusive: 12.6 µM [activator, partial curve]
O=C1C(Cc2ccccc2)Nc2ncnc(N3CCc4ccccc4C3)c2N1Cc1ccc(Br)cc1 (centres undefined) | – | inconclusive: 12.6 µM [activator, partial curve]
Cc1c(O)c2c3c(cccc3c1O)C(=O)N(c1ccccc1)C2=O | – | inconclusive: 3.55 µM [activator, partial curve]
Cc1cc(C)n(CC(=O)N2c3ccccc3Sc3ccc(C(F)(F)F)cc32)n1 | – | inconclusive: 31.6 µM [activator, single point]
Cc1cccc(Nc2nc3ccccc3s2)c1C | inactive: 0.334% | –
Clc1ccc(N2CCN(Cc3c[nH]c4ncccc34)CC2)cc1 | – | active: 7.31 µM
COc1ccc(Cl)cc1NC(=O)C(C)N1CCc2ccccc21 (centres undefined) | – | inconclusive: 15.8 µM [activator, single point]
Cc1c(C(=O)NCc2ccco2)oc2ccc(Br)cc12 | inactive: 28.2% | –
COC(=O)CSc1cc([N+](=O)[O-])ccc1NC(=O)OC | – | inconclusive: 3.16 µM [activator, partial curve]
COC(=O)c1cn(C(=O)c2ccc(C)cc2C)c2ccccc12 | inactive: 6.43% | –
Cc1cccc(C)c1OCC(=O)Nc1cccc(NC(=O)c2ccco2)c1 | – | inconclusive: 22.4 µM [activator, single point]
CC(C)CN(C(=O)CSc1nncn1-c1ccccc1)c1c(N)n(CC(C)C)c(=O)[nH]c1=O | inactive: -1.19% | –
CC(=O)c1cccc(NC(=O)c2ccc3c(c2)CCCC3)c1 | – | inconclusive: 11.2 µM [activator, partial curve]
CCCC1(C)C(C#N)(C#N)C1(C#N)C#N | – | inconclusive: 1.46 µM [activator, partial curve]
O=C(Nc1ccc2c(c1)OCO2)C(c1ccc(Cl)cc1)N1CCC2(CC1)OCCO2 (centres undefined) | – | inconclusive: 31.6 µM [activator, single point]
CC(Nc1oc(-c2ccco2)nc1C#N)c1ccccc1 (centres undefined) | – | inconclusive: 20 µM [activator, partial curve]
CNCC(O)Cn1c(C(F)(F)F)nc2ccccc21 (centres undefined) | – | inconclusive: 5.62 µM [activator, single point]
C/C=C(/C)C(=O)OC1c2c(ccc3ccc(=O)oc23)OC(C)(C)C1OC(=O)/C(C)=C\C (centres undefined) | inactive: 8.98% | –
Cc1ccc(NCc2ccc(Cl)nc2)c(NCc2ccc(Cl)nc2)c1 | – | inconclusive: 17.8 µM [activator, single point]
c1ccc(-c2ccccc2OCCCN2CCOCC2)cc1 | – | active: 20 µM

Of the compounds above, these have a Cl atom.
SMILES | growth rescue (activation) | Potency
Clc1ccc(N2CCN(Cc3c[nH]c4ncccc34)CC2)cc1 | – | active: 7.31 µM
COc1ccc(Cl)cc1NC(=O)C(C)N1CCc2ccccc21 (centres undefined) | – | inconclusive: 15.8 µM [activator, single point]
O=C(Nc1ccc2c(c1)OCO2)C(c1ccc(Cl)cc1)N1CCC2(CC1)OCCO2 (centres undefined) | – | inconclusive: 31.6 µM [activator, single point]
Cc1ccc(NCc2ccc(Cl)nc2)c(NCc2ccc(Cl)nc2)c1 | – | inconclusive: 17.8 µM [activator, single point]

(continued)

SMILES | growth rescue (activation) | Potency
COc1cc(C(=O)NCc2ccncc2)cc(Br)c1OCc1ccccc1 | – | inconclusive: 1.58 µM [activator, full curve, poor fit]
CN(Cc1cccnc1)Cc1cn[nH]c1-c1ccc(-c2ccccc2)cc1 | inactive: 1.12% | –
CC1CCN(C2CCN(S(=O)(=O)c3ccc(C(F)(F)F)cc3)CC2)CC1 | – | active: 11.2 µM
CC(=O)Nc1cccc(C(=O)/C=C/c2ccc(C)cc2)c1 | – | inconclusive: 11.2 µM [activator, single point]
Cc1ccccc1NC(=O)c1ccc(F)c(S(=O)(=O)NCC2CCCO2)c1 (centres undefined) | inactive: -0.947% | –
C[C@H]1O[C@H](O[C@H]2[C@H](O[C@@H]3CC[C@@]4(C)C(CC[C@]5(C)C4CC=C4[C@@H]6CC(C)(C)CC[C@]6(C(=O)O[C@@H]6O[C@H](CO)[C@@H](O)[C@H](O)[C@H]6O)CC[C@]45C)C3(C)C)O[C@H](C(=O)O)[C@@H](O)[C@@H]2O)[C@@H](O)[C@@H](O)[C@@H]1O (some centres undefined) | inactive: 0.0261% | –
FC(F)(F)c1cccc(-c2nc3nc(Cl)c(Cl)nc3[nH]2)c1 | – | inconclusive: 3.16 µM [activator, full curve]
Cc1ccc(C(=O)NC(=S)NCC2CCCO2)cc1Br (centres undefined) | – | inconclusive: 35.5 µM [activator, single point]
Cc1cc(NS(=O)(=O)c2ccccc2)c([N+](=O)[O-])cc1C | – | inconclusive: 12.6 µM [activator, partial curve]
Cc1c(C(=O)c2cccc(F)c2)c2ccccn2c1CCC#N | – | inconclusive: 8.91 µM [activator, partial curve, poor fit]
O=C(Nc1ccc2c(c1)OCO2)c1ccc(N2CCCC2)c([N+](=O)[O-])c1 | – | inconclusive: 35.5 µM [activator, single point]
Cc1sc(NC(=O)C2CCCCC2C(=O)O)c(C(N)=O)c1-c1ccc(C(C)(C)C)cc1 (centres undefined) | inactive: 5.69% | –
O=C1C(=O)N2C(=C1C(=O)N1CCCCCC1)c1ccccc1CC21CCCC1 | – | inconclusive: 17.8 µM [activator, single point]
CCN1C(=O)CSC1=NC1C2CC3CC(C2)CC1C3 (centres undefined) | inactive: -11.7% | –
CCN1/C(=C/C=C/C=C/c2sc3ccccc3[n+]2CC)Sc2ccccc21 | – | inconclusive: 15.8 µM [activator, partial curve]
CCOc1ccc2oc(C(=O)Nc3ccc(N4CCOCC4)cc3)c(C)c2c1 | inactive: -1.58% | –
CC1(C)Cc2ccccc2-c2nc3n(c(=O)c21)CCCS3 | – | inconclusive: 10 µM [activator, partial curve]
COc1ccc(-c2ccc(=O)n(Cc3cccc(Cl)c3)n2)cc1 | – | inconclusive: 7.94 µM [activator, partial curve, poor fit]
CC(=O)c1sc(NC(=O)c2cnc(Cl)c(Cl)c2)nc1C | – | inconclusive: 28.2 µM [activator, partial curve]
Cc1ccc(C)c(C(=O)CN2C(=O)c3ccccc3C2=O)c1 | – | inconclusive: 4.47 µM [activator, single point]
O=C(CN1CCSCC1)N/N=C/c1ccccc1F | inactive: -1.56% | –
Cn1c2ccccc2c2cc(/C=N/NC(=O)c3ccc(N)cc3)ccc21 | inactive: 2.22% | –
Cc1c(C(=O)N2CCN(c3ccccc3)CC2)sc2ncnc(N3CCC(C)CC3)c12 | – | inconclusive: 35.5 µM [activator, single point]

SMILES | growth rescue (activation) | Potency
Cc1ccc(C2=CC(=O)C[C@H](c3ccc4c(c3)OCO4)C2)cc1 | – | active: 3.98 µM
O=C1C(=O)c2ccccc2C(O)=C1C1CCC(c2ccc(Cl)cc2)CC1 (centres undefined) | inactive: -8.4% | –
Cn1cc(C2CC(c3ccccc3)=NN2C(=O)c2ccccc2)c2ccccc21 (centres undefined) | – | inconclusive: 31.6 µM [activator, single point]
O=C(NCc1ccc2c(c1)OCO2)c1ccc(COc2cccc(Cl)c2)o1 | – | inconclusive: 22.4 µM [activator, single point]
O=C(CN1CCN(S(=O)(=O)c2ccc(F)cc2)CC1)Nc1ccc(F)cc1F | – | active: 35.5 µM
CCOC(=O)c1nn(-c2cccc(Cl)c2)c2nc(Nc3ccccc3)cc(=O)n12 | – | inconclusive: 17.8 µM [activator, single point]
CCOC(=O)C1CCCN(S(=O)(=O)c2ccc(S(N)(=O)=O)cc2)C1 (centres undefined) | – | inconclusive: 35.5 µM [activator, single point]
O=c1c2c3c(sc2nc2sc(CN4CCOCC4)cn12)CCCC3 | – | inconclusive: 3.16 µM [activator, full curve]
CCC(C)C(NC(=O)C1CCC(C)CC1)C(=O)NCc1ccco1 (centres undefined) | – | active: 35.5 µM
CC(C)CC1Nc2ncnc(N3CCCCC3)c2N(Cc2ccc(Br)cc2)C1=O (centres undefined) | – | active: 22.4 µM
O=C(OCn1nnc2ccccc2c1=O)c1ccc(N2CCOCC2)c([N+](=O)[O-])c1 | – | inconclusive: 14.1 µM [activator, partial curve]
O=C(CN1CCCC1)Nc1ccc(Br)cc1[N+](=O)[O-] | inactive: 1.13% | –
CC1CN(/C=C/C(=O)C(F)(F)F)CC(C)O1 (centres undefined) | – | inconclusive: 0.708 µM [activator, full curve]
O=C(Cc1csc(-c2cccc(Cl)c2)n1)Nc1cccc(S(=O)(=O)NC2=NCCC2)c1 | inactive: -12.7% | –
Cc1ccccc1N1C(=O)CC1(C#N)c1ccc(OCc2ccccc2)cc1 (centres undefined) | – | inconclusive: 35.5 µM [activator, single point]
COCCN1C(=O)c2oc3c(C)cc(C)cc3c(=O)c2C1c1cccc(O)c1 (centres undefined) | – | inconclusive: 25.1 µM [activator, single point]
Cc1onc(-c2ccccc2)c1C(=O)NCc1ccc2c(c1)OCO2 | – | inconclusive: 22.4 µM [activator, partial curve]
O=C(Nc1ccccc1)Nc1ncc([N+](=O)[O-])s1 | – | inconclusive: 22.4 µM [activator, single point]
O=[N+]([O-])c1cccc(/C=N\N=C2c3ccccc3-c3ccccc32)c1O | – | inconclusive: 31.6 µM [activator, single point]
CN(C(=O)/C=C/c1ccco1)c1ccccc1C(=O)O | – | inconclusive: 11.2 µM [activator, partial curve]
CC1(C)Nc2ccc(O)cc2-c2c1ssc2=S | inactive: 3.92% | –
CCO[C@@H]1OC(C(=O)N2CCN(Cc3ccccc3)CC2)=C[C@H](c2cn(C(C)=O)c3ccccc23)[C@H]1CCCO | – | inconclusive: 35.5 µM [activator, single point]
CC(=O)NC(c1ccco1)c1cc(Br)c2cccnc2c1O (centres undefined) | – | inconclusive: 35.5 µM [activator, single point]
